The nature of the series: general procedure: Fmoc solid-phase peptide synthesis; Rink amide AM resin (0.47 mmol/g); HBTU/DIEA. Conditions: whole synthesis; for isolated yield: scale of the general procedure 100 mg Fmoc-Pra-rink amide resin.

From patent US12643935B2 (UNIVERSITY OF SOUTHERN CALIFORNIA, priority 2020, dated 2026) come the findings set out here.

Where no end group is shown, it is not given here. [ ]: non-standard residue; d: D form. Pra = C#CC[C@H](N)C(=O)O

MRIFAVFIFMTYWHLLNAK[Pra] yielded an isolated mass of 19 mg and an isolated yield of 16.1%.
Consider YKLNLIHPHIFLMDWIFASG[Pra], for which the isolated mass was determined as 6.6 mg and the isolated yield amounted to 5.6%.
Turning to MPIFLDHILNKFWILHYASG[Pra], the isolated mass worked out at 24.2 mg and the isolated yield is given as 20.5%.
